Values quoted from earlier work in patent publication US6436933B1 (priority 2001, dated 2002).
At least one compound was matched to its structure with a doubt left.

System: B anthracis
Conditions: monkey, in vivo; cited from earlier work

Structure (SMILES): C[C@H]1c2cccc(O)c2C(=O)C2=C(O)[C@]3(O)C(=O)C(C(N)=O)=C(O)[C@@H](N(C)C)[C@@H]3[C@@H](O)[C@@H]21 [doxycycline]
- monkeys that survived a lethal aerosol challenge: 9 of 10
